The test has as its target T1, Lipolysis-stimulated lipoprotein receptor (LSR) (mouse (endogenous in mouse ISCs)) (UniProt Q99KG5).
T1 sequence: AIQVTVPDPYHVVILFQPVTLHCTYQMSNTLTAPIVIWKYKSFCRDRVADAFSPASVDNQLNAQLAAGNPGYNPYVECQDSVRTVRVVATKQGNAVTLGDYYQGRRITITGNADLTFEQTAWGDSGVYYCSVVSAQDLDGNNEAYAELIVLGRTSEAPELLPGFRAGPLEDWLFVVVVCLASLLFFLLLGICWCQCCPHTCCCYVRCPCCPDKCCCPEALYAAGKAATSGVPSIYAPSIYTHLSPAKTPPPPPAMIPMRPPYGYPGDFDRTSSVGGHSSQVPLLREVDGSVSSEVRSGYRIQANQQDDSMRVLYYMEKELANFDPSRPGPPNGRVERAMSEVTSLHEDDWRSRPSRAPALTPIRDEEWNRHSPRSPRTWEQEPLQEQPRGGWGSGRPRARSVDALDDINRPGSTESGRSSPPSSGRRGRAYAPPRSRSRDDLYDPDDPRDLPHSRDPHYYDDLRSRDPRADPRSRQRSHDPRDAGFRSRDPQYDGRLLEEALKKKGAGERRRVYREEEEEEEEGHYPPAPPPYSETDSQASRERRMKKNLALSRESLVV
The test can be described thus: affinity purification with mass spectrometry.

Protein sequences, listed by entry. Tags and fused reporters are not part of them.
UniProt P63101: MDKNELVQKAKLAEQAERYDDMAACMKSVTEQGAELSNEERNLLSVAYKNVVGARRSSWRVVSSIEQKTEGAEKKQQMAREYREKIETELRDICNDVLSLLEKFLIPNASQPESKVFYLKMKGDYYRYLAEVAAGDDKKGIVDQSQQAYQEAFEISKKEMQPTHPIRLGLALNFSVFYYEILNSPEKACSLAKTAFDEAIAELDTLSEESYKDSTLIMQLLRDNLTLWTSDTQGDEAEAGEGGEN

Results are given in words; binding and its absence hold for the method and conditions named. In cells and extracts the contact can be indirect. These calls come from enrichment with a bait or labelling near it, and not all partners need be listed.

On to 14-3-3 zeta (from UniProt P63101 1-245), for which the binding entry was “binds”.

For the origin of these results see publication doi:10.1101/2022.10.30.514401.
